Data as given in article PMC10997842.
These are yes or no findings as the source states them, for the method shown. In cells and extracts the contact can be indirect. Some entries that bind do so weakly or less than the wild type.

Protein sequences, listed by entry. Tags and fused reporters are not part of them.
UniProt Q14203: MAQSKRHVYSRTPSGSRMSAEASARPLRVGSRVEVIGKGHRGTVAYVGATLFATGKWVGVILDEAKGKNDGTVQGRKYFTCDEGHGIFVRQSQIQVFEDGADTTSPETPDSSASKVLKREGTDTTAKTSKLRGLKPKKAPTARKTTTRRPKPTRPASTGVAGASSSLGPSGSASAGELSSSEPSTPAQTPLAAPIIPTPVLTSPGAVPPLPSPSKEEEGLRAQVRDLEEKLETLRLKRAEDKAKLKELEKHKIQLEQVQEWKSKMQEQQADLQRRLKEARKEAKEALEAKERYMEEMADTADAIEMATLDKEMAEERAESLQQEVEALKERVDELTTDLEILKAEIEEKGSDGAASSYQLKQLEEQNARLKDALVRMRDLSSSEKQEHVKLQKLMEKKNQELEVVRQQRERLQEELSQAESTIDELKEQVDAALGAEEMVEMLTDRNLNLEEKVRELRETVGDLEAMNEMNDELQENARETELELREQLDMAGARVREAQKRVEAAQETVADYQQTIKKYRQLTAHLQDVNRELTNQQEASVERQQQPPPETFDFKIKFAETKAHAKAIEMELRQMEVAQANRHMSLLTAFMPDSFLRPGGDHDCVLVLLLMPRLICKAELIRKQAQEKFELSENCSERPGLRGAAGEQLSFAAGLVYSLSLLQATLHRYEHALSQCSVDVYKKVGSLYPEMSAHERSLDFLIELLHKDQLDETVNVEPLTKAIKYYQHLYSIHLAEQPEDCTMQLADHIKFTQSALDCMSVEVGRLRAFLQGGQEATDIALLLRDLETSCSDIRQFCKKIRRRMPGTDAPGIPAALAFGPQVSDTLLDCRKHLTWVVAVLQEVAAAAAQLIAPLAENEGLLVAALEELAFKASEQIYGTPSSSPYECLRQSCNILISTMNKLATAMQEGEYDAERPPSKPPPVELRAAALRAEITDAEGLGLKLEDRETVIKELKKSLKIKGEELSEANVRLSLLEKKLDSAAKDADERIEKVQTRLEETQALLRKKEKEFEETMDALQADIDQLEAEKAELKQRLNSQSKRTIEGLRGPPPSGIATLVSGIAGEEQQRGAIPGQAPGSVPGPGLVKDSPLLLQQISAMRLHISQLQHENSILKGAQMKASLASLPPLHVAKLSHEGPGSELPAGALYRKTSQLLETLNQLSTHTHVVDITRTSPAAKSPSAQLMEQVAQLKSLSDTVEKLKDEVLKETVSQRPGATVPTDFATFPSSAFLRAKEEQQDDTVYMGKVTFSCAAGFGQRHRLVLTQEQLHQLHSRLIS
UniProt Q07866: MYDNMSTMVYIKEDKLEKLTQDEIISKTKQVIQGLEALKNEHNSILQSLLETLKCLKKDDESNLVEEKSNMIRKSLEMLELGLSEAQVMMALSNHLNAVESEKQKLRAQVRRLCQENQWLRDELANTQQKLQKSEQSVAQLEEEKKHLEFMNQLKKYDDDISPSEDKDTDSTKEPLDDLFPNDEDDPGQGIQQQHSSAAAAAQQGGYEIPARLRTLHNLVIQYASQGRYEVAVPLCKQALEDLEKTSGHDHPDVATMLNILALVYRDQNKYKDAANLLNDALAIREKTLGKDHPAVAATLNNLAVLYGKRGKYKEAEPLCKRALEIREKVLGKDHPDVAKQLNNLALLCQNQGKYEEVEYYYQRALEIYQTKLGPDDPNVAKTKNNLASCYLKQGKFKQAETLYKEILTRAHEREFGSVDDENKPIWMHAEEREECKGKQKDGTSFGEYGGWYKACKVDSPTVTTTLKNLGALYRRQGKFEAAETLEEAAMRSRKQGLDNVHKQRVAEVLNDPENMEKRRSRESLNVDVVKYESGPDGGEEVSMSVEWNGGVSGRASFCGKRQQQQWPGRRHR

Tests used:
[1] = molecular target: dynactin-1 (DCTN1) (human (endogenous in SH-SY5Y and in hiPSC-derived hNPCs)) (UniProt Q14203); test: co-IP; lysates of differentiated SH-SY5Y cells transduced with APPwt or APPswe; IP with antibody against DCTN1 or KLC1, blots for APP, DCTN1, KLC1
[2] = molecular target: kinesin light chain 1 (KLC1) (human (endogenous in SH-SY5Y)) (UniProt Q07866); test: as above
[3] = molecular target: endogenous amyloid precursor protein carrying the Swedish variant, of neural progenitors from a FAD patient (human (endogenous in hiPSC-derived hNPCs)) (UniProt P05067); test: co-IP; lysates of hNPCs differentiated from hiPSCs of a healthy subject or a FAD APPswe patient; IP with an antibody against APP or an IgG isotype control, blots for APP and DCTN1
[4] = molecular target: endogenous amyloid precursor protein of neural progenitors from a healthy subject (human (endogenous in hiPSC-derived hNPCs)) (UniProt P05067); test: as above
[5] = molecular target: APP harboring the Swedish KM670/671NL FAD variant linked to turbo red fluorescent protein (APPswe-tRFP) (UniProt P05067); test: co-IP; lysates of 20 DIV differentiated SH-SY5Y cells transduced with tagged APPwt or APPswe; IP against the GFP or tRFP tag of APP (magnetic beads), blots for APP, DCTN1, KLC1; also after DMSO or 10 or 40 uM beta-site APP-cleaving enzyme inhibitor
[6] = molecular target: WT amyloid precursor protein linked to GFP (APPwt-GFP) (UniProt P05067); test: as above
[7] = molecular target: WT amyloid precursor protein linked to turbo red fluorescent protein (APPwt-tRFP) (UniProt P05067); test: as above

Measured: binding

APP harboring the Swedish KM670/671NL FAD variant linked to turbo red fluorescent protein (APPswe-tRFP) (from UniProt P05067 18-770)
binds: [1] | [2]

WT amyloid precursor protein linked to GFP (APPwt-GFP) (from UniProt P05067 18-770)
binds: [1] | [2]

dynactin-1 (DCTN1) (from UniProt Q14203 1-1278)
not listed: [1] | [2]
binds: all other assays above

kinesin light chain 1 (KLC1) (from UniProt Q07866 1-573)
binds: [5] | [6] | [7]
